PubChem BioAssay (NCATS)
This list was built around the results that the source calls inconclusive (neither active nor inactive); the mix of calls is not that of the screen. Potencies of inconclusive entries are doubtful fits and often do not repeat. The source made the active and inactive calls. Calls follow the shape of the dose curve; as a rule, active = well fitted cell-killing curve with a large enough effect; inconclusive = small, poorly fitted or top-dose-only effect, or effect the other way; inactive = no such curve, though single readings can be large or run the other way.

Columns and labels:
[1] = Quantitative High-Throughput drug screen in 47 multiple myeloma cell lines against the NCATS MIPE library collection: FR4_PLB cell viability assay (AID 1918924; also: nearly all actives have a fitted effect of over 35% in size); conditions: FR4_PLB myeloma cells viability, CellTiter-Glo ATP, 48 h; viability (% of DMSO control): at 45.8 µM (top of the series)
Outline: (§1)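 Myeloma cell lines, 500 cells per well, exposed to MIPE 4.0 library compounds for 48 h at 37C, 5% CO2. Viability from ATP by CellTiter-Glo luminescence; normalised to DMSO (100%) and media-only (0%) wells.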

[2] = Quantitative High-Throughput drug screen in 47 multiple myeloma cell lines against the NCATS MIPE library collection: Delta47_JCRB cell viability assay (AID 1918925; also: nearly all actives have a fitted effect of over 45% in size); conditions: Delta47 myeloma viability, CellTiter-Glo ATP, 48 h; viability (% of DMSO): at 45.8 µM (top of the series) unless noted
Outline: (§2)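 Viability readout: CellTiter-Glo luminescence following 5 min room-temperature incubation with reagent. Prior exposure: 48 h, 37C, humidified 5% CO2, 500 cells per well.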

[3] = Quantitative High-Throughput drug screen in 47 multiple myeloma cell lines against the NCATS MIPE library collection: EJM_DSMZ cell viability assay (AID 1918926; also: nearly all actives have a fitted effect of over 30% in size); conditions: EJM myeloma cell viability, CellTiter-Glo ATP, 48 h; viability, % of control: at 45.8 µM (top of the series)
Outline: as §2

[4] = Quantitative High-Throughput drug screen in 47 multiple myeloma cell lines against the NCATS MIPE library collection: Karpas417_ECACC cell viability assay (AID 1918961); conditions: Karpas417 myeloma viability, CellTiter-Glo ATP luminescence, 48 h; viability (% of DMSO): at 45.8 µM (top of the series) unless noted
Outline: as §1

[5] = Quantitative High-Throughput drug screen in 47 multiple myeloma cell lines against the NCATS MIPE library collection: KHM11_PLB cell viability assay (AID 1918962); conditions: KHM11 myeloma cell viability, CellTiter-Glo ATP luminescence, 48 h; viability, % of DMSO control: at 45.8 µM (top of the series); also: nearly all actives have a fitted effect of over 35% in size
Outline: as §1

[6] = Quantitative High-Throughput drug screen in 47 multiple myeloma cell lines against the NCATS MIPE library collection: AMO1_DSMZ cell viability assay (AID 1918927; also: nearly all actives have a fitted effect of over 30% in size)
Outline: as §2

[7] = Quantitative High-Throughput drug screen in 47 multiple myeloma cell lines against the NCATS MIPE library collection: ARP1_JJKsccF8 cell viability assay (AID 1918928; also: nearly all actives have a fitted effect of over 40% in size); conditions: ARP1 myeloma cells viability, CellTiter-Glo ATP, 48 h; viability: at 45.8 µM (top of the series)
Outline: (§3)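 Myeloma cells, 500 per well, were exposed to MIPE 4.0 drugs by pin transfer for 48 h at 37 °C, 5% CO2. Viability was read as ATP luminescence with CellTiter-Glo, normalised to DMSO-only (100%) and medium-only (0%) wells.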

[8] = Quantitative High-Throughput drug screen in 47 multiple myeloma cell lines against the NCATS MIPE library collection: ARD_JJKsccE7 cell viability assay (AID 1918929)
Outline: as §2

[9] = Quantitative High-Throughput drug screen in 47 multiple myeloma cell lines against the NCATS MIPE library collection: Karpas620_DSMZ cell viability assay (AID 1918959); also: nearly all actives have a fitted effect of over 30% in size
Outline: as §1

[10] = Quantitative High-Throughput drug screen in 47 multiple myeloma cell lines against the NCATS MIPE library collection: KMM1_JCRB cell viability assay (AID 1918960); conditions: KMM1 myeloma viability, CellTiter-Glo ATP luminescence, 48 h; viability (% of DMSO): at 45.8 µM (top of the series); also: nearly all actives have a fitted effect of over 30% in size
Outline: as §3
Potency is read from the fitted curve at half-maximal effect.

CCC=CC[C@H]1C(=O)CC[C@@H]1CC(=O)OC
inactive: Potency [1] | Potency [3] | Potency [4]
inconclusive: Potency [2] 0.935 µM [cytotoxic, full curve, poor fit] | Potency [5] 2.64 µM [cytotoxic, full curve, poor fit]

CCOC(CN1C(=O)[C@](CC(=O)Nc2ccc(C)cc2)(NC(=O)Nc2ccc(C)cc2)c2ccccc21)OCC
inconclusive: Potency [1] 37.2 µM [cytotoxic, single point] | Potency [2] 33.2 µM [cytotoxic, single point] | Potency [6] 37.2 µM [cytotoxic, single point] | Potency [7] 23.5 µM [cytotoxic, single point] | Potency [8] 33.2 µM [cytotoxic, single point] | Potency [10] 29.6 µM [cytotoxic, single point] | Potency [5] 20.9 µM [cytotoxic, partial curve]
active: Potency [9] 16.6 µM | Potency [4] 16.6 µM

O=C(NC1CCOCC1)c1ccc(-c2cc(-c3cn[nH]c3-c3ccccn3)ccn2)cc1
inactive: Potency [1] | Potency [3] | Potency [7]
inconclusive: Potency [2] 16.6 µM [cytotoxic, partial curve, poor fit] | Potency [6] 0.0187 µM [cytotoxic, full curve, poor fit] | Potency [10] 0.0418 µM [cytotoxic, full curve, poor fit] | Potency [4] 0.059 µM [cytotoxic, full curve, poor fit] | Potency [5] 0.0743 µM [rising, full curve, poor fit]

CC1(C)SCCN(S(=O)(=O)c2ccc(OCC#CCO)cc2)[C@@H]1C(=O)NO
inactive: Potency [3] | Potency [9]
inconclusive: Potency [1] 37.2 µM [cytotoxic, single point] | Potency [2] 33.2 µM [cytotoxic, single point] | Potency [10] 1.66 µM [cytotoxic, partial curve, poor fit] | Potency [4] 37.2 µM [rising, partial curve, poor fit] | Potency [5] 0.0833 µM [cytotoxic, full curve, poor fit]
active: Potency [6] 2.64 µM

C=C[C@@H]1CN2CCC1C[C@@H]2C(O)c1ccnc2ccc(OC)cc12 (stereo partly drawn)
inactive: Potency [6] | Potency [10]
active: Potency [7] 1.87 µM
inconclusive: Potency [1] 14.8 µM [cytotoxic, partial curve, poor fit] | Potency [3] 16.6 µM [cytotoxic, partial curve, poor fit] | Potency [8] 0.0033 µM [cytotoxic, full curve, poor fit] | Potency [4] 33.2 µM [rising, partial curve]

Cc1cnc(C(=O)O)c[n+]1[O-]
inconclusive: Potency [2] 0.332 µM [cytotoxic, full curve, poor fit] | Potency [7] 18.7 µM [cytotoxic, partial curve, poor fit]
inactive: Potency [1] | Potency [9] | Potency [10] | Potency [4] | Potency [5]

CCC[C@@H](NC(=O)[C@@H]1[C@H]2CCC[C@@H]2CN1C(=O)[C@@H](NC(=O)[C@@H](NC(=O)c1cnccn1)C1CCCCC1)C(C)(C)C)C(=O)C(=O)NC1CC1
inconclusive: Potency [1] 18.7 µM [cytotoxic, partial curve] | Potency [7] 33.2 µM [cytotoxic, single point] | Potency [8] 13.2 µM [cytotoxic, partial curve, poor fit] | Potency [10] 14.8 µM [cytotoxic, partial curve] | Potency [4] 23.5 µM [cytotoxic, partial curve, poor fit] | Potency [5] 0.833 µM [rising, full curve]
inactive: Potency [3]

CCCCC[C@H](O)C=C[C@H]1[C@H](O)CC(=O)[C@H]1CC=CCCCC(=O)O
inconclusive: Potency [3] 0.0009 µM [cytotoxic] | Potency [4] 37.2 µM [rising, partial curve, poor fit]
inactive: Potency [1] | Potency [7] | Potency [8]

CO[C@H]1C[C@@H]2CC[C@@H](C)[C@@](O)(O2)C(=O)C(=O)N2CCCC[C@@H]2C(=O)O[C@H]([C@H](C)C[C@@H]2CC[C@H](OP(C)(C)=O)[C@H](OC)C2)CC(=O)[C@H](C)C=C(C)[C@@H](O)[C@@H](OC)C(=O)[C@H](C)C[C@H](C)C=CC=CC=C1C
inconclusive: Potency [1] 26.4 µM [cytotoxic, single point] | Potency [3] 16.6 µM [cytotoxic, partial curve, poor fit] | Potency [6] 26.4 µM [cytotoxic, single point] | Potency [7] 41.8 µM [cytotoxic, single point] | Potency [8] 26.4 µM [cytotoxic, single point] | Potency [9] 13.2 µM [cytotoxic, partial curve] | Potency [4] 5.9 µM [cytotoxic, partial curve, poor fit] | Potency [5] 26.4 µM [rising, single point]

O=C(Nc1cc(Cl)cc2c1[nH]c1cnccc12)c1cccnc1
inconclusive: Potency [4] 6.62 µM [rising, partial curve, poor fit] | Potency [5] 2.09 µM [cytotoxic, full curve, poor fit]
active: Potency [1] 1.87 µM | Potency [3] 10.5 µM | Potency [7] 13.2 µM | Potency [10] 6.62 µM
inactive: Potency [6] | Potency [8]

Cc1ccc([C@@H]2O[C@H](CO)[C@@H](O)[C@H](O)[C@@H]2O)cc1Cc1ccc(-c2ccc(F)cc2)s1
active: Potency [6] 18.7 µM | Potency [8] 20.9 µM
inconclusive: Potency [1] 20.9 µM [cytotoxic, single point] | Potency [3] 20.9 µM [cytotoxic, single point] | Potency [7] 37.2 µM [cytotoxic, single point] | Potency [5] 0.296 µM [rising, full curve, poor fit]

Clc1ccc(CCC(Cn2ccnc2)Sc2c(Cl)cccc2Cl)cc1 (stereo not drawn)
inconclusive: Potency [1] 33.2 µM [cytotoxic, single point] | Potency [3] 23.5 µM [cytotoxic, partial curve] | Potency [7] 33.2 µM [cytotoxic, single point] | Potency [10] 14.8 µM [cytotoxic, partial curve] | Potency [4] 11.8 µM [cytotoxic, partial curve, poor fit] | Potency [5] 37.2 µM [cytotoxic, single point]
active: Potency [6] 14.8 µM

Copied from above, 2 compounds:
CO[C@H]1C[C@@H]2CC[C@@H](C)[C@@](O)(O2)C(=O)C(=O)N2CCCC[C@@H]2C(=O)O[C@H]([C@H](C)C[C@@H]2CC[C@H](OP(C)(C)=O)[C@H](OC)C2)CC(=O)[C@H](C)C=C(C)[C@@H](O)[C@@H](OC)C(=O)[C@H](C)C[C@H](C)C=CC=CC=C1C
inconclusive: Potency [1] 26.4 µM [cytotoxic, single point] | Potency [3] 16.6 µM [cytotoxic, partial curve, poor fit] | Potency [6] 26.4 µM [cytotoxic, single point] | Potency [7] 41.8 µM [cytotoxic, single point] | Potency [8] 26.4 µM [cytotoxic, single point] | Potency [9] 13.2 µM [cytotoxic, partial curve] | Potency [4] 5.9 µM [cytotoxic, partial curve, poor fit] | Potency [5] 26.4 µM [rising, single point]

O=C(Nc1cc(Cl)cc2c1[nH]c1cnccc12)c1cccnc1
inconclusive: Potency [4] 6.62 µM [rising, partial curve, poor fit] | Potency [5] 2.09 µM [cytotoxic, full curve, poor fit]
active: Potency [1] 1.87 µM | Potency [3] 10.5 µM | Potency [7] 13.2 µM | Potency [10] 6.62 µM
inactive: Potency [6] | Potency [8]

Later entries:

CC[C@H]1OC(=O)[C@H](C)[C@@H](O[C@H]2C[C@@](C)(OC)[C@@H](O)[C@H](C)O2)[C@H](C)[C@@H](O[C@@H]2O[C@H](C)C[C@H](N(C)C)[C@@H]2O)[C@](C)(OC)C[C@@H](C)C(=O)[C@H](C)[C@@H](O)[C@]1(C)O
inactive: Potency [1] | Potency [3] | Potency [6] | Potency [7] | Potency [10] | Potency [4]
inconclusive: Potency [8] 0.0047 µM [cytotoxic, full curve, poor fit] | Potency [5] 33.2 µM [cytotoxic, single point]

OCCN(CCO)c1nc(N2CCCCC2)c2nc(N(CCO)CCO)nc(N3CCCCC3)c2n1
inconclusive: Potency [1] 26.4 µM [cytotoxic, single point] | Potency [3] 37.2 µM [cytotoxic, single point] | Potency [7] 37.2 µM [cytotoxic, single point] | Potency [8] 29.6 µM [cytotoxic, single point] | Potency [9] 20.9 µM [cytotoxic, partial curve] | Potency [4] 33.2 µM [cytotoxic, partial curve, poor fit] | Potency [5] 33.2 µM [cytotoxic, single point]

N#C[C@H]1C[C@H]2C[C@@H]2N1C(=O)[C@@H](N)C12CC3CC(CC(O)(C3)C1)C2
inconclusive: viability (% of DMSO) [2] 83.8% [cytotoxic] | Potency [4] 18.7 µM [rising, partial curve, poor fit]
inactive: Potency [1] | Potency [9] | Potency [5]

CN1[C@H]2CC[C@H]1CC(OC(=O)c1c[nH]c3ccccc13)C2 (stereo partly drawn)
inactive: Potency [3] | Potency [6]
inconclusive: Potency [1] 23.5 µM [cytotoxic, partial curve, poor fit] | Potency [7] 13.2 µM [cytotoxic, partial curve, poor fit] | Potency [8] 8.33 µM [rising, full curve, poor fit] | Potency [4] 13.2 µM [rising, partial curve, poor fit]

O=C(OCC#CCSc1nnc(-c2cccc3ccccc23)o1)c1cc2ccccc2s1
inconclusive: Potency [6] 0.0047 µM [cytotoxic, full curve, poor fit] | Potency [7] 20.9 µM [cytotoxic, partial curve, poor fit] | Potency [4] 0.662 µM [cytotoxic, full curve, poor fit]
active: Potency [3] 23.5 µM
inactive: Potency [1] | Potency [5]

CC=C(C)C(=O)O[C@H]1C(C)=C[C@]23C(=O)[C@@H](C=C(CO)[C@@H](O)[C@]12O)[C@H]1[C@@H](C[C@H]3C)C1(C)C
inconclusive: Potency [1] 3.32 µM [cytotoxic, partial curve, poor fit] | Potency [3] 18.7 µM [cytotoxic, partial curve] | Potency [7] 18.7 µM [cytotoxic, partial curve]
active: Potency [6] 18.7 µM | Potency [4] 0.209 µM | Potency [5] 3.72 µM
